# From patent publication US12453723B2, “Use of chidamide in preparing drug for treating renal fibrosis” (THE SECOND AFFILIATED HOSPITAL OF SOOCHOW UNIVERSITY, priority 2023, dated 2025)
# At least one compound was matched to its structure with a doubt left.
# Test system: TGF-β stimulated renal tubular epithelial cells HK-2
# Assay: PI3K inhibitor LY 294002 and chidamide on fibrosis markers Collagen I and α-SMA in TGF-β stimulated HK-2 (immunoblotting)
# Assay type: cell-based
# Description: Subsequently, this example further investigated the change of chidamide on fibrosis markers after LY 294002 treatment was used in TGF-β stimulated renal tubular epithelial cells HK-2. […] The above experimental results initially verify that chidamide is very likely to inhibit the progression of renal fibrosis through the PI3K/Akt signaling pathway.
# In FIG. 8, (A) the effect of different concentrations of LY 294002 (LY) on protein expression of fibrosis markers Collagen I and α-SMA in TGF-β stimulated renal tubular epithelial cells HK-2 was detected by the immunoblotting experiment; (B) the effect of LY 294002 (LY) on fibrosis marker Collagen I and α-SMA protein expression by chidamide was detected in TGF-β stimulated renal tubular epithelial cells HK-2 by the immunoblotting experiment.
smiles,measurement,setting,value
O=c1cc(N2CCOCC2)oc2c(-c3ccccc3)cccc12 [LY 294002],protein expression of fibrosis markers Collagen I and α-SMA,"TGF-β stimulated HK-2, different concentrations of LY 294002, FIG. 8A",can inhibit the protein expression of fibrosis markers Collagen I and α-SMA in TGF-β stimulated renal tubular epithelial cells HK-2 at a dose-dependent manner
same,protein expression of fibrosis markers Collagen I and α-SMA,"TGF-β stimulated HK-2, used alone, FIG. 8B",can inhibit
